Laboratory results as given in PubChem BioAssay AID1794845 (National Center for Advancing Translational Sciences (NCATS), 2023).
Hit rate of the full screen: of about 6,900 compounds, fewer than 10 were called active. Calls follow the shape of the dose curve; as a rule, active = well fitted curve in the direction sought with a large enough effect; inconclusive = small, poorly fitted or top-dose-only effect, or another doubt; inactive = no such curve, though single readings can be large or run the other way. The list shows a part of the results.

Chains of the proteins cited; added tags and fusions are not shown. Lines headed by an entry give the natural chain unless they say otherwise; changes in a name come on top.
UniProt C7C422: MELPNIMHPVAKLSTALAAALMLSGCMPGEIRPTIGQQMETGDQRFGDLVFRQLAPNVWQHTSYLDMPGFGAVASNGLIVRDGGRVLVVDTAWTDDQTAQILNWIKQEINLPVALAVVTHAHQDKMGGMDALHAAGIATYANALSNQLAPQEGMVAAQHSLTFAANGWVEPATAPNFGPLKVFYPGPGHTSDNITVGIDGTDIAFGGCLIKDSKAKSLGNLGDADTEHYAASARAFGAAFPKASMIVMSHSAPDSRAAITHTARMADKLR

Target: Metallo-beta-lactamase type 2 (Klebsiella pneumoniae) (UniProt C7C422)
Assay: qHTS to identify inhibitors of the New Delhi Metallo-beta-lactamase (NDM): primary screen against the NCATS Gemini Collection; also: % of control where 0% means no effect
Conditions: NDM-1 enzyme, meropenem hydrolysis, absorbance 300 nm; at 38.4 µM (top of the series) unless noted
Method in brief: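 NDM-1 at 2 nM final in 50 mM HEPES pH 7.0, 1 uM ZnSO4, 0.01% Tween20, preincubated >30 min with compound. Meropenem 50 uM final added; absorbance at 300 nm after 30 min.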

Structure (SMILES) | activity % (negative = inhibition)
CN(C)CCN1CC2(CCCN(C(=O)CCCn3cnnn3)C2)CCC1=O (configuration not stated) | inactive: -2.94%
COCCn1cnc2ccc(-c3cccc(O)c3)nc2c1=O | inactive: 14.4% [at 57.5 µM]
Cc1cc(CN(C)Cc2ccc(F)cc2)no1 | inactive: 1.41% [at 57.5 µM]
O=C(NCc1ccccc1C(F)(F)F)c1cccc2c1CCN2C(=O)C1CC1 | inactive: -0.326%
COCCN1CCCC2(CCN(C(=O)CCn3cncn3)C2)C1=O (configuration not stated) | inactive: 4.91%
O=C(Nc1ccc(C(F)(F)F)cc1)N[C@@H]1C[C@H](CO)[C@@H](O)[C@H]1O | inactive: 0.876% [at 57.5 µM]
Cc1cnc(CCNC(=O)C2(c3ccccc3)CC2)n1Cc1ccccc1 | inactive: -2.54%
CSCC[C@@H]1NC(=O)c2cc(NC(=O)c3cc(-c4ccccn4)n[nH]3)ccc2NC1=O | inactive: 7.17%
CCc1nc(NC(CCn2cncn2)c2ccccc2)c2cnn(C)c2n1 (configuration not stated) | inactive: 8.7%
O=C1NC2(CCN(Cc3ccccc3)C2)COc2ccccc21 (configuration not stated) | inactive: 18.5% [at 57.5 µM]
COc1ccc(-n2c(CN)n[nH]c2=O)cc1OC | inactive: 63.8%
CCCn1c(C)cnc1CC1CCN(S(=O)(=O)CCC)CC1 | inactive: 4.77%
CC(C)Cc1cc(C(=O)N2C[C@H](C3CC3)[C@@H](N)C2)n(C)n1 | inactive: 4.15%
Cc1nnnn1-c1cccc(C(=O)N2CCCC(O)(CN(C)C)CC2)c1 (configuration not stated) | inactive: -11.5%
O=C(NCc1ccncc1)C1c2ccccc2C(=O)N(C2CCCC2)C12CCCCC2 (configuration not stated) | inactive: 35.4%
Cn1c(CNC(=O)C2(C)CCCCC(=O)N2)nc2ccccc21 (configuration not stated) | inactive: 9.51%
c1ccc(Cc2nnc([C@H]3CCN(CC4CCCCC4)C3)o2)cc1 | inactive: -0.624% [at 57.5 µM]
CCn1nccc1C(=O)N1C[C@@H]2CCCN3CCC[C@@H]([C@H]23)[C@H]1CCCC(=O)NC | inactive: 11.5%
Cc1cccc([S+](=O)([O-])N2CCC3(CC2)OCCN(CC2CC2)C3=O)c1 | inactive: 3.19% [at 57.5 µM]
CCCNC(=O)N[C@@H]1CCC[C@@H](C(=O)N(CC)CC)CC(=O)N(C)C1 | inactive: 7.22% [at 57.5 µM]
Cc1ccc(S(N)(=O)=O)cc1C(=O)N1CCCn2nc(C(C)O)cc2C1 (configuration not stated) | inactive: 16.2%

Structure (SMILES) | activity % (negative = inhibition)
CCNC(=O)N1CCOc2ccc(CN3CCOCC3)cc2C1 | inactive: -1.24%
O=C(CCc1nc2ccccc2[nH]1)N1CCC(c2nc(CCOCC3CC3)no2)C1 (configuration not stated) | inactive: -5.96%
COc1ccc(C(=O)N2CCCC(n3cc(-c4nc(C5CC5)no4)nn3)C2)cn1 (configuration not stated) | inactive: -1.63%
O=C(CC1CCN(C(=O)c2cc(F)ccc2F)C1)NC1CC1 (configuration not stated) | inactive: -1.08%
O=C(O)C1(c2ccccc2)CCN(S(=O)(=O)c2cccs2)CC1 | inactive: 16.8%
Cc1nn(C)c(C)c1S(=O)(=O)N1CCC(c2noc(C3CC3)n2)C1 (configuration not stated) | inactive: 0.821%
C[C@H]1[C@@H]2[C@H]3OC(=O)[C@@H](C)[C@@H]3CC[C@@]2(C)CC[C@@H]1NC(=O)Cc1ccccc1 | inactive: 7.32% [at 57.5 µM]
COCc1nnc(C2CC3(CCN(C(=O)c4cccc(C)c4)CC3)CN2C)o1 (configuration not stated) | inactive: -3.02%
COc1ccc(N2CCOC3CCN(Cc4ccc(C(C)C)cc4)CC3C2=O)cc1 (configuration not stated) | inactive: -1.15% [at 57.5 µM]
O=c1n(CC2CC2)c2cccnc2n1[C@H]1CCCN(S(=O)(=O)c2cccnc2)C1 | inactive: 8.6%
Cc1nc(N2CCC(NCCc3n[nH]c(=O)[nH]3)CC2)c2ccsc2n1 | inactive: -0.17%
CS(=O)(=O)N[C@H]1C[C@H]2C(=O)NC[C@@H](CCC(=O)N3CCCCC3)N2C1 | inactive: 22.8% [at 57.5 µM]
O=C(c1ccncc1)N1CC(c2nc(CCc3ccccc3)no2)C1 | inactive: 59.2%
Cc1cccc(-c2noc(CCC(=O)N[C@H]3CC[C@H]3NC3CCCC3)n2)c1 | inactive: 9.99%
Cc1nc([C@@H]2CN(C(=O)c3cccc(C#N)c3)C[C@H]2C(N)=O)n[nH]1 | inactive: 1.2%
Cc1ccc(C2Cn3nnc(C(=O)N4CCC(C(=O)NCCc5ccccc5)CC4)c3CO2)cc1 (configuration not stated) | inactive: 44.3%
O=C(c1ccc(-c2cncnc2)cc1)N1CCC(N[S+](=O)([O-])c2cccc(C(F)(F)F)c2)CC1 | inactive: -0.677%
COc1ccc(CNC[C@H]2O[C@H](Cc3cc(COc4ccccc4)on3)CC[C@@H]2O)cc1 | inactive: -9.57%
Cc1ccc(CN2CCC(C(=O)N3CCCCCCNC(=O)CC3)CC2)s1 | inactive: 6.72%
Cc1nnc([C@H]2CCN(Cc3cnc4ccccc4c3)C2)o1 | inactive: 7.31% [at 57.5 µM]
Cc1ccc(NC(=O)N2CCC(CCNC(=O)CC3CCCC3)CC2)cc1F | inactive: 3.54%

Quoted at random: four entries already listed.
Structure (SMILES) | activity % (negative = inhibition)
COc1ccc(N2CCOC3CCN(Cc4ccc(C(C)C)cc4)CC3C2=O)cc1 (configuration not stated) | inactive: -1.15% [at 57.5 µM]
O=C(c1ccncc1)N1CC(c2nc(CCc3ccccc3)no2)C1 | inactive: 59.2%
COc1ccc(C(=O)N2CCCC(n3cc(-c4nc(C5CC5)no4)nn3)C2)cn1 (configuration not stated) | inactive: -1.63%
C[C@H]1[C@@H]2[C@H]3OC(=O)[C@@H](C)[C@@H]3CC[C@@]2(C)CC[C@@H]1NC(=O)Cc1ccccc1 | inactive: 7.32% [at 57.5 µM]
